About 7,500 (2.1%) of roughly 360,000 compounds were called active. The shares of active, inactive and inconclusive entries below differ from those in the screen. Calls follow the shape of the dose curve; as a rule, active = well fitted inhibition curve with a large enough effect; inconclusive = small, poorly fitted or top-dose-only effect, or effect the other way; inactive = flat fitted curve, though single readings scatter. A potency beside an inconclusive call is a rough fit, not a confirmed value.
Test: Nrf2 qHTS screen for inhibitors; also: nearly all actives have a fitted effect of over 60% in size
Conditions: A549 ARE-Fluc reporter, luciferase luminescence, 18-24 h; series mostly up to 46 µM
Procedure, shortened: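 Cells were seeded and rested 2 h, then exposed to compounds for 18-24 h. CellTiter-Fluor was read first as a viability measure. BugLite was added 15 min before the final luminescent read of ARE-luciferase activity in A549 cells.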
Potency is read from the fitted curve at half-maximal effect.

SMILES | Potency
CCC(=O)Nc1nonc1-c1nc2ccccc2n1Cc1ccccc1 | inconclusive: 23.1 µM [activator, single point]
CCOc1ccc(CNC(=O)C2CCCN(S(=O)(=O)N(C)c3ccc(F)cc3)C2)cc1OC (stereo unspecified) | inconclusive: 29.1 µM [falling, single point]
COc1cccc(/C=N/NC(=O)C(=O)Nc2ccccc2OC(F)(F)C(F)F)c1O | inconclusive: 20.6 µM [falling, single point]
O=C(Nc1cccc(Br)c1)c1ccc(CN2CCc3ccccc3C2)cc1 | active: 8.2 µM
Cc1ccc2nc(NC(=O)CN3C(=O)C4CC=CCC4C3=O)sc2c1 (stereo unspecified) | inconclusive: 3.66 µM [activator, partial curve]
CC(NC(=O)CNC(=O)C1O[C@@H]2OC(C)(C)O[C@@H]2[C@H]2OC(C)(C)O[C@@H]12)C(=O)O (stereo partly specified) | inactive
O=S1(=O)CC/C(=N/Nc2ccccn2)c2cc(F)ccc21 | inconclusive: 29.1 µM [falling, single point]
O=S(=O)(Nc1nc2ccccc2s1)c1ccc(Br)s1 | inconclusive: 25.9 µM [falling, single point]
O=C(Nc1ccc(Cl)cc1)Nc1ccc(N2CCOCC2)cc1 | inactive
COc1ccc(-c2noc3c2-c2nc(-c4ccccc4)sc2CC3)cc1 | inconclusive: 16.4 µM [activator, single point]
O=C(c1cc(-c2ccc(Cl)c(Cl)c2)on1)N1CCCCC1 | inconclusive: 11.6 µM [activator, partial curve]
CCN(CC(=O)Nc1ccc(NC(C)=O)cc1)c1ccc(C(F)(F)F)cn1 | inconclusive: 7.31 µM [falling, partial curve, poor fit]
COc1cccc(C(=O)N2CCCC(c3nc(-c4cccs4)no3)C2)c1 (stereo unspecified) | inconclusive: 20.6 µM [falling, partial curve, poor fit]
O=C(c1ccccc1)c1ccc2nc(-c3ccc(NC(=O)c4ccccc4Br)cc3)[nH]c2c1 | inconclusive: 29.1 µM [falling, partial curve, poor fit]
CC(C)(C)c1ccc(S(=O)(=O)N2CCN(C(=O)C3CCC3)CC2)cc1 | inconclusive: 20.6 µM [falling, single point]
OCCNc1nc(SCc2ccccc2)nc2sc3c(c12)CCC3 | inactive
CCOC(=O)c1ccccc1-c1cn2cc(Cl)ccc2n1 | inconclusive: 8.2 µM [activator, partial curve]
O=C(CNc1cccc(S(=O)(=O)N2CCCCCC2)c1)Nc1cccc([N+](=O)[O-])c1 | inconclusive: 20.6 µM [falling, single point]
COc1ccc(C2CC(c3ccccc3)=NN2c2ccc(S(N)(=O)=O)cc2)cc1OC (stereo unspecified) | inconclusive: 29.1 µM [falling, single point]
COc1ccccc1-c1cc(C(F)(F)F)nc(S(C)(=O)=O)n1 | inconclusive: 29.1 µM [falling, single point]
CCCCNC(=O)CCn1c(=O)c2ccccc2n(CC(=O)NCCc2ccc(OC)c(OC)c2)c1=O | inconclusive: 5.8 µM [falling, partial curve, poor fit]

In the list so far, 2 have two or more sulfur atoms:
SMILES | Potency
O=S(=O)(Nc1nc2ccccc2s1)c1ccc(Br)s1 | inconclusive: 25.9 µM [falling, single point]
OCCNc1nc(SCc2ccccc2)nc2sc3c(c12)CCC3 | inactive

Additional compounds follow:

SMILES | Potency
COC(=O)c1cc(-c2cccc(OC)c2)n[nH]1 | inconclusive: 25.9 µM [activator, partial curve, poor fit]
COC(=O)c1cc(-c2ccc(OC)c(OC)c2)c2c(=O)[nH]c(=O)n(C)c2n1 | inconclusive: 10.3 µM [falling, partial curve]
O=C(NCCc1ccccc1)c1ccc2c(c1)OCO2 | inconclusive: 1.46 µM [activator, full curve]
O=C(CN1CCN(Cc2ccccc2)CC1)N/N=C/c1c[nH]c2ccccc12 | inconclusive: 20.6 µM [falling, partial curve, poor fit]
COc1cccc(NC(=O)CN(C)C(=O)CCC(=O)c2cc(C)sc2C)c1 | inactive
CCOc1ccc(NC(=O)Cn2ccn(-c3ccc(F)c(F)c3)c(=O)c2=O)cc1 | inconclusive: 29.1 µM [falling, single point]
CC1CCCC(NC(=O)COC(=O)c2ccc([N+](=O)[O-])o2)C1C (stereo unspecified) | inactive
COc1cccc(C(=O)Nc2ccc3c(cc2=O)[C@@H](NC(C)=O)CCc2cc(OC)c(OC)c(OC)c2-3)c1 | inconclusive: 29.1 µM [falling, single point]
CC1CCN(S(=O)(=O)c2ccc(NC(=O)CCN3C(=O)C4CC=CCC4C3=O)cc2)CC1 (stereo unspecified) | inconclusive: 29.1 µM [falling, single point]
c1ccc(Cn2c(NCc3ccco3)nc3ccccc32)cc1 | inconclusive: 16.4 µM [falling, partial curve, poor fit]
COc1ccc(-c2cc(C(F)(F)F)nc(SCC(=O)NCc3cnn(C)c3C)n2)cc1OC | inactive
COc1ccc(NC(=O)CCC(=O)c2cccs2)cc1S(=O)(=O)Nc1ccc(Cl)cc1 | inactive
CCOc1ccc(NC(=O)CN(C)C(=O)CSC(C)C(=O)Nc2cc(C)on2)cc1OCC (stereo unspecified) | inactive
COc1ccc(/C=C2/SC(=S)N(c3ccc(S(=O)(=O)Nc4nccs4)cc3)C2=O)cc1 | inconclusive: 29.1 µM [falling, single point]
CC(C)C[C@@H](CN1CCC[C@@H]1CN1C(=O)C(=O)NC[C@@H]1Cc1ccccc1)N1C[C@H](Cc2ccc(O)cc2)N(CC2CCCCCC2)C(=O)C1=O | inactive
Cc1ccc(N2C(=O)c3[nH]nc(-c4ccc(Cl)cc4)c3C2c2ccc(F)cc2)cc1 (stereo unspecified) | inconclusive: 18.4 µM [falling, single point]
CCC1(c2ccccc2)NC(=O)N(CC(=O)Nc2ccc(Cl)c(S(=O)(=O)N3CCCCC3)c2)C1=O (stereo unspecified) | inconclusive: 14.6 µM [falling, partial curve, poor fit]
O=c1[nH][nH]cc1C=Nc1ccccc1O | inactive
CC(C)C(=O)N1CCN(S(=O)(=O)c2ccc3ccccc3c2)CC1 | inconclusive: 11.6 µM [falling, partial curve]
Cc1ccc(S(=O)(=O)Nc2ccc(-c3nnc(SCc4ccccc4Cl)o3)cc2)cc1 | inconclusive: 18.4 µM [falling, single point]
